Converted amounts (≈) assume the structure as drawn. Like-named read-outs stand apart in the source and are kept apart here. Bounds are passed on as bounds.

Consider one molecule from publication PMC11464777, “Approved drugs successfully repurposed against Leishmania based on machine learning predictions” (Frontiers in Cellular and Infection Microbiology, 2024).

Assay [1] deals with L. major Empa-12 intracellular amastigotes. Nature of the assay: Anti-amastigote assay in THP-1-derived macrophages, L. major Empa-12. It counts as cell-based. Particulars: Leishmania major, Macrophage, Empa-12, intramacrophage, 72 h. On the procedure: (§1) THP-1-derived macrophages (5 × 10^4/well) were seeded in each 8-well Labtek slides (Thermo Scientific). Adherent macrophages were obtained as described above, then infected with stationary phase promastigotes of each strain at a ratio 10:1 (10 parasites/macrophage) in RPMI medium containing penicillin (100 U/mL) and streptomycin (100 μg/mL) with 10% fetal bovine serum (Gibco, Brazil) at 37°C in 5% CO2 for 24 h. […] Non-infected control cells were incubated in a supplemented RPMI medium containing 1% DMSO. After 72h of incubation, cells were fixed and stained using May-Grunwald-Giemsa staining with RAL 555 Kit (RAL DIAGNOSTICS, France), following the manufacturer’s instructions. The percentage of infected cells and the total number of internalized parasites per 100 macrophages were determined under immersion oil (magnification of 1000X) using light microscopy. The percentage of amastigotes viability was expressed as the percentage of total number of internalized parasites within treated cells relative to the total number of internalized parasites within control cells treated with 1% DMSO, and calculated as follows:
(§2) Relative amastigote viability (%) = [(number of amastigotes/100 treated cells)/(number of amastigotes/100 treated cells with1% DMSO)] * 100
(§3) The relative percentage of amastigote viability was evaluated to calculate half inhibitory concentrations (IC50). […]

Assay [2] deals with promastigotes of L. amazonensis. Particulars: read-out: IC50 against promastigotes, ref Andrade-Neto et al., 2016; cited from earlier work.
Assay [3] deals with L. major and L. infantum amastigotes. The experiment in a line: Anti-amastigote assay, stated across the three strains. Format: cell-based, Leishmania infantum, Leishmania major. The settings on record: 72 h, LV50, Drep-14, Empa-12, intramacrophage, read-out: Amastigotes IC50, span over the three strains. On the procedure:
as §1, §2, §3

Assay [4] relates to L. infantum Drep-14 promastigotes. Nature of the assay: microbe, parasite or virus in culture. Particulars: Leishmania infantum, 72 h. It counts as cell-based. An excerpt: (§4) Three Tunisian laboratory strains already described ([Oualha et al., 2019]), originally isolated from distinct clinical manifestations were used in this study: (i) L. infantum LV50 MHOM/TN/94/LV50) strain originating from a bone marrow of a visceral leishmaniasis patient, (ii) L. infantum Drep-14 (MHOM/TN/96/Drep-14) strain isolated from a lesion of a sporadic cutaneous leishmaniasis patient and (iii) L. major Empa-12 (MHOM/TN/2012/Empa-12) strain isolated from a zoonotic cutaneous leishmaniasis patient. Stocks of these parasites obtained after passage through BALB/c mice were used as previously described ([Oualha et al., 2019]). […]
(§5) The effect of the selected compounds on the viability of Leishmania promastigotes was evaluated by a colorimetric MTT (3-(4,5-dimethylthiazol-2yl)-2,5-diphenyl tetrazolium bromide) assay. It consists in the reduction of tetrazolium salt to a […] crystal (blue formazan) by the succinate dehydrogenase activity of mitochondria in living cells, which can be quantified by spectrophotometry. […] Then, 150 μl of DMSO was added to each well to dissolve the blue formazan and the optical density (OD) was measured at 570 nm with a microplate reader ([…], Labsystems). […] The mean percentage of promastigotes viability was calculated from the Optical Density at 570 nm as follows: […]

Assay [5] concerns L. major Empa-12 promastigotes. Nature of the assay: MTT-based promastigote viability assay, L. major Empa-12. It counts as cell-based. Particulars: Leishmania major, Empa-12, 72 h.
Source text: as §4, §5

For assay [6], the system named is L. infantum (LV50 and Drep-14) and L. major (Empa-12) promastigotes. The experiment in a line: MTT promastigote viability assay, stated across the three strains. It counts as cell-based, Leishmania major. The settings on record: Leishmania infantum, LV50, Drep-14, Empa-12, 72 h, read-out: Promastigotes IC50, span over the three strains.
Source text: as §4, §5

The test system of assay [7] is amastigotes of L. amazonensis. The settings on record: read-out: IC50 against amastigotes, relative to established threshold, ref Andrade-Neto et al., 2016; cited from earlier work.

For the molecule `O=c1[nH]c2ccccc2n1CCCN1CCC(n2c(=O)[nH]c3cc(Cl)ccc32)CC1` [Domperidone], the IC50 in assay [1] (read-out: Amastigotes IC50) is 1.99 ± 0.1 µg/mL; in assay [1] (read-out: Amastigotes IC50 (in brackets) (converted)), 4.67 µM; in assay [2], 51 µM; in assay [3], ≤ 1.99 µg/mL; in assay [4] (read-out: Promastigotes IC50) it was 6.3 ± 0.38 µg/mL; in assay [4] (read-out: Promastigotes IC50 (in brackets)), 14.8 µM. The IC50 in assay [5] (read-out: Promastigotes IC50) is 8.17 ± 0.41 µg/mL; in assay [5] (read-out: Promastigotes IC50 (in brackets) (converted)), 19.2 µM; in assay [6] it was 6.3 to 8.17 µg/mL (≈ 14.8 to 19.2 µM); in assay [7], < 25 µM.
